Measured values from BindingDB's records for doi:10.1016/j.chembiol.2011.01.012 (University of Luxembourg, 2011).

By UniProt entry, the sequences of proteins in these tests, tags left out. Where a name states a change or a piece, a line headed by the entry shows the natural chain unless it says otherwise.
UniProt O60674: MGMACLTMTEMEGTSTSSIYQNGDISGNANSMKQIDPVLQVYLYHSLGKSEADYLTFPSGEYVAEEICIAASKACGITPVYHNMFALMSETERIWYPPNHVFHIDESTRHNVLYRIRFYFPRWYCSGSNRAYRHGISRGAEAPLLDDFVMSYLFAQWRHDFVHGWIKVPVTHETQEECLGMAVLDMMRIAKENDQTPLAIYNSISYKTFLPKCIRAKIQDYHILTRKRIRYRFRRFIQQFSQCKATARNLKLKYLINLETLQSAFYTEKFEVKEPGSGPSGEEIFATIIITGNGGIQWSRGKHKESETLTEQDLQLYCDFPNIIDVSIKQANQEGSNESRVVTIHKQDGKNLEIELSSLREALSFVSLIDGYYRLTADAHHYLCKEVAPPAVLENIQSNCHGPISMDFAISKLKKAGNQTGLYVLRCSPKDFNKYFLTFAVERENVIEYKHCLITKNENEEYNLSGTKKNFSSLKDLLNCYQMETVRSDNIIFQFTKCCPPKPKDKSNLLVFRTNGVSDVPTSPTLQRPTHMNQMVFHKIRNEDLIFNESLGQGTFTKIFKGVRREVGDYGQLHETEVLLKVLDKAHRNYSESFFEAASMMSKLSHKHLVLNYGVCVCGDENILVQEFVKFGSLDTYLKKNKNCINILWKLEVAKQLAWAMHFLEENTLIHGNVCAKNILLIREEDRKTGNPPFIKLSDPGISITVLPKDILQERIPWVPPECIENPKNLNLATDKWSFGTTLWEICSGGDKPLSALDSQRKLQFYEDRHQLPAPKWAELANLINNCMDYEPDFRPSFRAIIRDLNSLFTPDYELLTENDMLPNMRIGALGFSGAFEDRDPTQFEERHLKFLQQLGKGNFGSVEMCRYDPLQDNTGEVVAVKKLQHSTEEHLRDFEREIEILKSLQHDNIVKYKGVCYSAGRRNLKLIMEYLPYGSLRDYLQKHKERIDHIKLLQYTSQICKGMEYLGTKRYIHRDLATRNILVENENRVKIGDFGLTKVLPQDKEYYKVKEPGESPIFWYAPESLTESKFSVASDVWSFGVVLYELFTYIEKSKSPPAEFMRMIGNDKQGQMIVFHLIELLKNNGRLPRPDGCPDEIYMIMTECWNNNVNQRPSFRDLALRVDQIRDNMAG

Molecular target: Tyrosine-protein kinase JAK2 (Homo sapiens, UniProt O60674)
Assay: Enzyme Assay
Conditions: pH 7.5; 30 °C

IC50: 2.55 µM
Structure (SMILES): CC(C)(O)C(=O)N1CCN(c2ccc(C(F)(F)F)c(C3=C(c4c[nH]c5ccccc45)C(=O)NC3=O)c2)CC1 [NIBR3049]
